Assay results from patent US20120172339A1, “ANGIOGENIC RESORCINOL DERIVATIVES” (Northeastern University, priority 2009, published 2012).
The name of at least one read-out is uncertain.

Tested on: sprouting or blood capillary formation under ex vivo conditions
Test: ex vivo angiogenesis assay (sprouting assay)

C=C(C)[C@@H]1CCC(C)=C[C@H]1c1c(O)cc(CCCCC)cc1O (relative stereo) [Compound 3.2, (−)-2-[3-3,4-trans-p-Menthadien-(1,8)-yl]-5-pentylresorcinol, reference compound]
Sprouting assay Angiogeneic score (1 × 10^−6 M): 0.5 arbitrary unit | Sprouting assay Angiogeneic score (1 × 10^−7 M): 0.25 arbitrary unit | Sprouting assay Angiogeneic score (1 × 10^−8 M): 0.0 arbitrary unit
